# Test results published in PubChem BioAssay AID1347426 (Functional Genomics Laboratory (NCATS/FGL), 2020).
# About 1,400 (4.5%) of roughly 31,000 sequences were called active.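 Rule for the calls: active = median seed-adjusted z-score above 1 or below -1; inactive = the rest.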 The list shows a part of the results.
# Experiment: Novel Modifiers of Survival Motor Neuron (SMN) Protein: Gene Identification via Genome-wide siRNA Screen;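 note: luminescence tracks full-length SMN protein made from the SMN2 reporter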
# Details: HEK293T SMN2-luciferase reporter, siRNA knockdown, 72 h; actives lie on both sides
# How it was run: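 siRNA screen, 10418 genes ×3 siRNAs; 1 pmol/well, lipid reverse transfection into HEK293T SMN2-luc reporter line. 72 h, 37 °C, 5% CO2; ONE-Glo readout. Data: neg-ctrl normalized, log10, MAD; hit = MAD >1.0 or < -1.0.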
row,Sequence,median seed-adjusted z-score
1,GGAUAUCGCACUUCACUCATT against ELL,inactive: -0.497
2,CGAUGUCUAGAGAACAGCATT against LAMB1,active: 1.07
3,GCAGUCCCACAUCAUCUCATT against SLC25A37,inactive: -0.0821
4,GCCUGUGAAUGUCCGAGAATT against AARSD1,inactive: -0.156
5,CCACGUCUAAAGUCCGAAATT against KIF3C,inactive: 0.0126
6,GAAGGUUGAUUAUCGUAAATT against BCMO1,inactive: 0.53
7,CGAAGCUAGUGGAACAGUATT against SF3A1,active: -1.09
8,CACCGAGUGAUGGUCCUUUTT against 2-Mar,inactive: 0.335
9,GCAGUUGGUGGAGCGAUUATT against USP7,inactive: 0.105
10,GCAUUCGAAUUAUAGAACATT against SLC16A14,inactive: 0.464
11,CAGAAUAUCUGUUUAAGUUTT against TFDP3,inactive: -0.135
12,AGUACGAUCUUGACUUCAATT against ENO3,inactive: -0.142
13,GCAUCAAAGCCUUAGACCATT against KLK2,inactive: 0.0716
14,GUUAGGUAGUAGAAACAAATT against TCFL5,active: 1.52
15,GAAUGGUCUUUGCAUCUGATT against ZNF589,inactive: -0.0897
16,GCUGAGUCCUGAUAACCAATT against IFIT3,inactive: -0.437
17,GGACUUGACCUAAAGGGUUTT against RFX5,inactive: 0.432
18,GGAUAUGAUGGAGCAAAAATT against PRKCI,inactive: 0.386
19,GAGUUGGGAUGGUUGCAUATT against TUBGCP3,inactive: -0.685
20,CAGUUACUCUGGGAGUAUATT against PRPF3,inactive: -0.289
21,AGAUCCCACAGACCAAUGUTT against ACP5,inactive: 0.353
22,GCAGAACUGCUGCUACAGATT against ANKZF1,inactive: 0.176
23,GGUUAACAAUGAGGACUUATT against CACNA2D2,inactive: -0.702
24,GCGUGUCAAAACUAACGUATT against RALY,inactive: 0
25,AAAUUCCCGUCAUUGAAAATT against SNRPA1,active: -2.71
26,CCAUUGCUAUCACAUGUUUTT against COCH,inactive: -0.524
27,CAAUGACUGUAAUGGACGATT against RCHY1,inactive: -0.157
28,GGCAAUCUCAGGAAAAAUATT against SRD5A3,inactive: -0.165
29,GGCGGGAACUGACUGACUATT against FKSG30,inactive: -0.292
30,CCAACAUGACCUUCACCAATT against HOMER3,inactive: 0.148

# From entry 14 to 21, as listed above:
row,Sequence,median seed-adjusted z-score
14,GUUAGGUAGUAGAAACAAATT against TCFL5,active: 1.52
15,GAAUGGUCUUUGCAUCUGATT against ZNF589,inactive: -0.0897
16,GCUGAGUCCUGAUAACCAATT against IFIT3,inactive: -0.437
17,GGACUUGACCUAAAGGGUUTT against RFX5,inactive: 0.432
18,GGAUAUGAUGGAGCAAAAATT against PRKCI,inactive: 0.386
19,GAGUUGGGAUGGUUGCAUATT against TUBGCP3,inactive: -0.685
20,CAGUUACUCUGGGAGUAUATT against PRPF3,inactive: -0.289
21,AGAUCCCACAGACCAAUGUTT against ACP5,inactive: 0.353
